Isolated yield and isolated mass data for one substance are collected here from PMC12132915 (2025).

This series can be described thus: general procedure: Fmoc solid-phase peptide synthesis; Rink amide; DIC/Oxyma; HATU/DIEA for benzoic acid derivatives. The following applies: whole synthesis, scale 0.1 mmol.

Substance OMe-Ald-W5 had an isolated mass of 22 mg. The isolated yield (overall) is reported as 10% overall yield.
